These results are taken from US7655643B2 (AiCuris GmbH & Co. KG, priority 2003, dated 2010).

A short description of series [1]: general procedure: solution-phase peptide synthesis; HATU / Hünig's base; EDC/DMAP pentafluorophenyl ester for macrocyclisation. Conditions: late stage modification step.
Another series concerns S. aureus 133. The experiment in a line: Determination of the spontaneous resistance rates to S. aureus. The series is classed as cell-based. Particulars: 48 h.

“3-Amino-N-{[(8S,11S,14S)-14-amino-11-[(2R) -3-amino-2-hydroxypropyl]-5-chloro-17-hydroxy-10,13-dioxo-9,12-diazatricyclo-[14.3.1.1^2,6]henicosa-1(20),2(21),3,5,16,18-hexaen-8-yl]carbo-nyl}-L-alanine tri(hydrotrifluoroacetate)”: the step yield in series [1] (tri(hydrotrifluoroacetate)) is 8% of theory.
As to `NC[C@H](O)C[C@@H]1NC(=O)[C@@H](N)Cc2cc(ccc2O)-c2ccc(O)c(c2)C[C@@H](C(=O)O)NC1=O` [Biphenomycin B, biphenomycin B, reference compound], the “spontaneous resistance rate S. aureus 133” value with S. aureus 133 (10× MIC) is reported as 1.7 × 10^−6.
Take `NCCNC(=O)[C@@H]1Cc2cc(ccc2F)-c2ccc(O)c(c2)C[C@H](N)C(=O)N[C@@H](C[C@@H](O)CN)C(=O)N1` [Example 12]: in the series with S. aureus 133 (5× MIC), the “spontaneous resistance rate S. aureus 133” value was 1.3 × 10^−10.
On the same count and under the same terms, to `CN1C(=O)[C@H](CCCN)NC(=O)[C@@H](N)Cc2cc(ccc2O)-c2ccc(Cl)c(c2)C[C@H]1C(=O)NCCN(CCN)CCN` [Example 42, (8S,11S,14S)-14-Amino-11-(3-aminopropyl)-N-{2-[bis(2-aminoethyl)amino]ethyl}-5-chloro-17-hydroxy-9-methyl-10,13-dioxo-9,12-diazatricyclo[14.3.1.1^2,6]henicosa-1(20),2(21)3,5,16,18-hexaene-8-carboxamide penta(hydrotrifluoroacetate)] belongs 5.3 × 10^−10.
As to “(8S,11S,14S)-14-Amino-11-[(2R)-3-amino-2-hydroxypropyl]-N-(2-amino-2-oxoethyl)-5-chloro-17-hydroxy-10,13-dioxo-9,12-diazatricyclo[14.3.1.1^2,6]henicosa-1(20),2(21),3,5,16,18-hexaene-8-carboxamide di(hydrotrifluoroacetate)”, the step yield in series [1] (di(hydrotrifluoroacetate)) is 29% of theory.
With “Methyl 3-amino-N-{[(8S,11S,14S)-14-amino-11-[(2R)-3-amino-2-hydroxypropyl]-5-chloro-17-hydroxy-10,13-dioxo-9,12-diazatricy-clo[14.3.1.1^2,6]henicosa-1(20),2(21),3,5,16.18-hexaen-8-yl]carbonyl}-L-alaninate tri(hydrotrifluoroacetate)”, the step yield in series [1] (tri(hydrotrifluoroacetate)) was 43% of theory.
For “N-{[(8S,11S,14S)-14-Amino-11-[(2R)-3-amino -2-hydroxypropyl]-5-chloro-17-hydroxy-10,13-dioxo-9,12-diazatricyclo[14.3.1.1^2,6]-henicosa-1(20),2(21),3,5,16,18-hexaen-8-yl]carbonyl}-L-serine di(hydrotrifluoroacetate)”, in series [1] (di(hydrotrifluoroacetate)), the step yield is on record as 11% of theory.
